Source: US20080027145A1, “Therapeutic Molecules and Methods for Generating and/or Selecting Same” (priority 2004, published 2008)
Results are given in words; binding and its absence hold for the method and conditions named. Binding seen in cells or lysates may run through a third protein. Some entries that bind do so weakly or less than the wild type.

Protein sequences, listed by entry. Tags and fused reporters are not part of them. Lines headed by an entry give the natural chain unless they say otherwise; changes in a name come on top. Chains listed by the source or under a name are the forms on record and can include a tag or linker.
FLAG-tagged human Bcl-2 (full-length) (P10415, form named): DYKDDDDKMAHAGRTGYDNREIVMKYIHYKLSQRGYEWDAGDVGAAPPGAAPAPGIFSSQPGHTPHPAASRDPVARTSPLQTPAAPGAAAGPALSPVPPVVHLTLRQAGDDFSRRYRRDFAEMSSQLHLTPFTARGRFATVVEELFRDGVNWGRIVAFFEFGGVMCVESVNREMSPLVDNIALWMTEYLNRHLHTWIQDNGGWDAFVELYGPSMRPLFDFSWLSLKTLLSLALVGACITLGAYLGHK
FLAG-tagged human Bcl-xL (full-length) (Q07817, form named): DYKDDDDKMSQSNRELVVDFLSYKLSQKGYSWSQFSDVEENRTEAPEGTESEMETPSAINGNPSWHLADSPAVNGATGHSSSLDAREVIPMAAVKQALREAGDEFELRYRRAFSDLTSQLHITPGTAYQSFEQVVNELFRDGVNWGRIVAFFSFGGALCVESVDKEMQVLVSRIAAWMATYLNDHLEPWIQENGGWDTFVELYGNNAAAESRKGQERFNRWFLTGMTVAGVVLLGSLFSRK
FLAG-tagged mouse Mcl-1 (full-length) (P97287, form named): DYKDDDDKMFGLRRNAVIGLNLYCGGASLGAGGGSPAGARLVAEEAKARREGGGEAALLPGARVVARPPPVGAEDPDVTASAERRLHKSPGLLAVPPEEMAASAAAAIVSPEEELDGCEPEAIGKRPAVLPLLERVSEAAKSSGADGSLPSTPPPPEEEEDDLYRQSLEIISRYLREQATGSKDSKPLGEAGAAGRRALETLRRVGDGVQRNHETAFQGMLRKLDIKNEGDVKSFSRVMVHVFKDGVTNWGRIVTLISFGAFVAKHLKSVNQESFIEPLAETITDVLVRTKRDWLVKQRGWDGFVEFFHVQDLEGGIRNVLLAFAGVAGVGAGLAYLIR
HA-tagged full-length human Bik (Q13323, form named): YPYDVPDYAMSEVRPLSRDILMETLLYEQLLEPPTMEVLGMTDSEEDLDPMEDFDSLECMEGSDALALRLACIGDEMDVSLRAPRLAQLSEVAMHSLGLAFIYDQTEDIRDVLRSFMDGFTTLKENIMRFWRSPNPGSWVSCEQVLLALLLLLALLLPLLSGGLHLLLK

What was measured:
[1] = biological target: FLAG-tagged human Bcl-2 (full-length) (human) (UniProt P10415); assay: co-immunoprecipitation from 293T cells
[2] = biological target: FLAG-tagged human Bcl-xL (full-length) (human) (UniProt Q07817); assay: co-immunoprecipitation from 293T cells
[3] = biological target: FLAG-tagged mouse Mcl-1 (full-length) (mouse) (UniProt P97287); assay: co-immunoprecipitation from 293T cells
[4] = biological target: FLAG-tagged human Bcl-2 (full-length) (human) (UniProt P10415); assay: co-immunoprecipitation from 35S-labelled 293T cell lysates
[5] = biological target: FLAG-tagged human Bcl-xL (full-length) (human) (UniProt Q07817); assay: as above
[6] = biological target: FLAG-tagged mouse Mcl-1 (full-length) (mouse) (UniProt P97287); assay: as above
[7] = biological target: FLAG-tagged human Bcl-xL (full-length) (human) (UniProt Q07817); assay: co-immunoprecipitation from 35S-labelled 293T cell lysates (FIG. 3C)
[8] = biological target: FLAG-tagged human Bcl-2 (full-length) (human) (UniProt P10415); assay: co-immunoprecipitation from 35S-labelled 293T lysates (IP anti-HA, anti-FLAG, control), fluorography
[9] = biological target: FLAG-tagged human Bcl-xL (full-length) (human) (UniProt Q07817); assay: as above
[10] = biological target: FLAG-tagged mouse Mcl-1 (full-length) (mouse) (UniProt P97287); assay: as above

Measured: binding

HA-tagged full-length human Bik (from UniProt Q13323 1-160)
binds: all assays above
